{
  "sequences": {"note": "By UniProt entry, the sequences of proteins in these tests, tags left out.", "UniProt P46937": "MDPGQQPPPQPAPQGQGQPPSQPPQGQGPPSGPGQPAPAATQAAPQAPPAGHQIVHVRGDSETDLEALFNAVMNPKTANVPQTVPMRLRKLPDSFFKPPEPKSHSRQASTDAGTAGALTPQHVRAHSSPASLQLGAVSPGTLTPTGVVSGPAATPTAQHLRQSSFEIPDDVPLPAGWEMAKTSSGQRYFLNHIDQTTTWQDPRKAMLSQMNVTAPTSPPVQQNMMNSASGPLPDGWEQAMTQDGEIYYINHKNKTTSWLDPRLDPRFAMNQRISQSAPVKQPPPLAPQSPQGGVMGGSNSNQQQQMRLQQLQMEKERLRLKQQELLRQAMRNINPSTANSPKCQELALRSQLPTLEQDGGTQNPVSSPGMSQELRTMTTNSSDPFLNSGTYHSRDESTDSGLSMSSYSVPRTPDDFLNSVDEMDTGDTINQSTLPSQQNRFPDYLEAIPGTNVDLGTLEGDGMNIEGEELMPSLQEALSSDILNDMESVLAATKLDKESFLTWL", "UniProt P54252": "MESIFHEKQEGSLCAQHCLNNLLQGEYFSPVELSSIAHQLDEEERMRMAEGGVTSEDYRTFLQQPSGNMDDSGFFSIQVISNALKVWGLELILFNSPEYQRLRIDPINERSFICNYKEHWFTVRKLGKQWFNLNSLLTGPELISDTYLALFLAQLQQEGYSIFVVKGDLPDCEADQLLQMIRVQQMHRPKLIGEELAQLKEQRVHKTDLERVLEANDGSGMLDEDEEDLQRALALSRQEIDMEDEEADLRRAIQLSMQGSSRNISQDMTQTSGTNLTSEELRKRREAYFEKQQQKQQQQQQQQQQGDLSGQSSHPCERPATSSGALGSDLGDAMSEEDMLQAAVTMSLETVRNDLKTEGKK"},
  "source": "paper PMC10286397",
  "key": {"[1]": {"target": "YAP (endogenous) (human (endogenous in LnCap)) (UniProt P46937)", "experiment": "co-IP; endogenous proteins in LnCap cells, RIPA lysis buffer; antibody overnight at 4 °C, protein A/G PLUS-Agarose beads; antibody as indicated in the figure"}, "[2]": {"target": "GST-YAP (UniProt P46937)", "experiment": "pull-down; lysate of LnCap cells transfected with Flag-ATXN3 incubated with GST-YAP or GST protein; bound ATXN3 detected by western blot; only the target purified"}, "[3]": {"target": "Myc-YAP full length (UniProt P46937)", "experiment": "co-IP; HEK293 cells transfected with 2 µg Myc-YAP and Flag-ATXN3 full length or mutants, 24 h, NP-40 lysis buffer; IP with Myc antibody, blot with Flag antibody"}, "[4]": {"target": "Flag-ATXN3 full length (UniProt P54252)", "experiment": "co-IP; HEK293 cells transfected with 2 µg Flag-ATXN3 and Myc-YAP full length or mutants, 24 h, NP-40 lysis buffer; IP with Flag antibody, blot with Myc antibody"}},
  "note": "No constants are given. Whether binding was seen depends on the method and setting. Binding seen in cells or lysates may run through a third protein. Some entries that bind do so weakly or less than the wild type.",
  "data": [
    {"substance": "ATXN3 (endogenous) (from UniProt P54252 1-361) (enzyme)", "values": [
      {"measurement": "binding", "setting": "[1]", "result": "binds"}
    ]},
    {"substance": "Flag-ATXN3 (in LnCap cells) (from UniProt P54252 1-361) (enzyme)", "values": [
      {"measurement": "binding", "setting": "[2]", "result": "binds"}
    ]},
    {"substance": "Flag-ATXN3 full length (from UniProt P54252 1-361) (enzyme)", "values": [
      {"measurement": "binding", "setting": "[3]", "result": "binds"}
    ]},
    {"substance": "Myc-YAP full length (from UniProt P46937 1-504)", "values": [
      {"measurement": "binding", "setting": "[4]", "result": "binds"}
    ]}
  ]
}
